Experimental data taken from patent publication US20210008104A1, “COMPOSITIONS AND METHODS FOR INHIBITING HIV-1 REVERSE TRANSCRIPTASE” (The United States of America, as represented by the …, priority 2017, published 2021).
“Also recorded” adds a separate entry of the source. At least one structure is not confirmed: it was looked up by name or label, or the drawing left a doubt.

Columns and labels:
Assay type in all cases: biochemical
Set-up in all cases: made in house
human DNA polymerase β [1] = molecular target: T1, human DNA polymerase β (Homo sapiens, UniProt P06746); assay: Single-turnover analysis of reverse reaction (pyrophosphorolysis / PNP-dependent) on nicked DNA
Description: Reaction buffer. All kinetic measurements were performed in a buffer containing 50 mM MES, 25 mM Tris, 25 mM ethanolamine (pH 7.5 adjusted at 37° C.), 100 mM KCl, 10 mM MgCl2 supplemented with 10% glycerol, 100 μg/ml bovine serum albumin, 1 mM DTT, and 0.1 mM EDTA. […] DNA polymerase β was used to fill a 1-nucleotide gapped DNA substrate with either [^32P] dCTP or [^35S] dATP to create a 3'-radiolabeled nicked DNA substrate. The reaction mixture contained 50 mM Tris-Cl, pH 7.4 (37° C.), 100 mM KCl, 10 mM MgCl2, 1 mM DTT, 2.5 μM gapped DNA, […] [^32P] dCTP or [^35S] dATP. The single-nucleotide DNA substrate was similar to the nicked substrate described above, except the primer strand was one nucleotide shorter (3'-nucleotide deleted). Gap filling was initiated by addition of pol β and incubated at 37° C. for 5-10 min. The reaction was quenched by addition of 0.5 M EDTA (0.1 vol). To remove enzyme and unincorporated nucleotides, the mixture was extracted with phenol-chloroform-isoamyl alcohol (25:24:1) followed by two passages through BioSpin 6 columns. Aliquots of the labeling reaction were removed before and following the extraction and removal steps to determine final DNA substrate concentration. Pre- and post-aliquots (1 μl) were spotted onto PEI cellulose plates and developed in 0.375 M KH2PO4, pH 4.0. The ratio (post/preextraction) was used to correct the initial DNA concentration for loss or dilution of substrate. Kinetic parameters for the reverse reaction were determined under single turnover conditions (E/DNA=10) at 37° C. […] Time courses were initiated by mixing with an equal volume of a 20 mM MgCl2 and 50 μM dNTP trap solution in reaction buffer. The dNTP trap prevents re-insertion of radiolabeled product dNTP and corresponds to the identity of the nucleotide triphosphate produced during the reaction. […] EDTA (0.1 or 0.2 M) was used as the quenching agent. Substrates and products were resolved by TLC in either 0.2 or 0.3 M NaPi, pH 7.0 buffer. Kinetic analysis. Single-turnover time courses were fit to a single exponential equation to yield the first-order rate constants (kobs) at a given concentration of GMPPNP, PPi or PNP. Under these conditions, kobs was dependent on the concentration of substrate. A secondary plot of the concentration dependence of kobs was hyperbolic and fitted by nonlinear least-squares method to equation (1) where kmax is the intrinsic rate constant for the step limiting the first nucleotide insertion (forward reaction) or removal (reverse reaction). kobs=kmax[S]/[…] (1) […] Unless noted, kinetic constants represent best-fit parameters and their standard error.

human DNA polymerase β [2] = molecular target: T1, human DNA polymerase β; assay: Qualitative reverse reaction assay with PPi analogs; conditions: 1 mM PPi analog, 10 mM MgCl2, 5′-32P-labeled nicked DNA
Description: Reverse reaction assay. Pol β (1 μM) was pre-incubated with 100 nM nicked DNA containing either a matched or mismatched primer terminus for 5 min at 37° C. in reaction buffer. A solution with 20 mM MgCl2 containing 2 mM PPi or pyrophosphate analog in reaction buffer was used to initiate the reaction. Following mixing, the final concentrations were 500 nM pol β, 50 nM nicked DNA, 10 mM MgCl2, and 1 mM PPi or pyrophosphate analog. Aliquots (5 or 10 μl) were removed at various times and quenched in an equal volume of 0.3 M EDTA, pH 8.0. Reaction substrates and products were separated and visualized as described above.

human DNA polymerase β [3] = molecular target: T1, human DNA polymerase β; assay: Overall equilibrium constant determination (gapped vs nicked DNA); conditions: for calculated equilibrium constant: dGMPPNP
Description: A mixture of 500 nM pol β with single-nucleotide gapped DNA (pol/DNA=10; templating G or C) containing various concentrations of PPi (500-2,000 μM) or PNP (20, 50, 100 μM) was mixed with an equal volume of 20 mM MgCl2 containing 60-100 nM dCTP or 50 μM dGMPPNP and incubated at 37° C. for various time intervals. Aliquots (10 μl) were withdrawn at various times and quenched with an equal volume of 0.3 M EDTA. The reactions were quenched after 10-80 s and reaction products separated on a sequencing gel. The substrate (gapped DNA) and product (nicked DNA) bands were quantitated, and the overall equilibrium constant calculated; Keq=[nicked DNA][PPi]/[gapped DNA][dCTP] or [nicked DNA] [PNP]/[gapped DNA][dGMPPNP]. The mean and standard error for 6 independent determinations are reported in the text.

human DNA polymerase β [4] = molecular target: T1, human DNA polymerase β; assay: Removal of chain-terminated or mismatched primer termini by reverse reaction
Description: The removal of a terminated primer terminus by the reverse reaction required enzymatic synthesis of the nicked DNA substrate. A pre-incubated mixture of 4 μM pol and 0.4 μM one-nucleotide gapped DNA was mixed 1:1 (v/v) with 20 mM MgCl2 and 0.2 μM various triphosphates of chain-terminating nucleotides ([…], or dFdCTP). The gap-filling reaction proceeded at 37° C. for 10-20 min to generate a terminated nicked DNA substrate. An aliquot was removed and quenched to verify complete gap filling (16-mer). The reverse reaction was initiated by addition of an equal volume of 10 mM MgCl2 and 250 μM PPi or PNP. An aliquot (time=3 min) was removed, quenched, and analyzed on a denaturing gel. The removal of a terminal mismatch by a reverse reaction was followed by incubation of […] Pol with 100 nM 5'-^32P-labeled nicked DNA substrate with a matched (G-C) or mismatched (G-A or G-T) primer terminal base pair for 5 min at 37° C. This was mixed with a solution of 20 mM MgCl2 and 2 mM PPi or PNP (1:1, v/v) to initiate the reaction.

In the case of `O=P(O)(O)NP(=O)(O)O` [PNP, imidodiphosphate], the overall equilibrium altered (human DNA polymerase β [1]; imido analogs (dGMPPNP insertion, PNP reverse reaction) vs natural substrates) is reported as about 105 fold, the “chemical equilibrium constant K4” value (human DNA polymerase β [1]; measured single-turnover rates taken as intrinsic rate constants) is reported as 0.003 and the “observed rate constant for the reverse reaction (krev)” value (human DNA polymerase β [1]; nicked DNA, single-turnover (enzyme/DNA>1)) is reported as about 30 s⁻¹. The “observed reverse reaction increased by” value (human DNA polymerase β [1]; relative to PPi) was “three orders of magnitude”, the “phosphorothioate (thio-elemental) effect krev(O)/krev(S)” value (human DNA polymerase β [1]; removal of 3′-terminal Rp-phosphorothioate nucleotide vs dAMP) was about 30 and the “PNP binding affinity weaker than PPi” value (human DNA polymerase β [1]; single-turnover) was about 4 fold. For the same molecule, the “rate of the reverse reaction more rapid than with PPi” value (human DNA polymerase β [1]; single-turnover) was 1,000 fold, the “ability to serve as substrate for the reverse reaction (qualitative)” value (human DNA polymerase β [2]) was “strong activity” and the calculated equilibrium constant (human DNA polymerase β [3]; 20 μM PNP) was 1.5. For the same molecule, the calculated equilibrium constant (human DNA polymerase β [3]; 50 μM PNP) was 1.9, the calculated equilibrium constant (human DNA polymerase β [3]; 100 μM PNP) was 2.2 and the “overall equilibrium constant Keq” value (human DNA polymerase β [3]; imido-analogs: PNP with dGMPPNP, templating cytosine, mean and standard error) was 1.7±0.1. For the same molecule, the “removal of a 3′ mismatched nucleotide” value (human DNA polymerase β [4]; G-A or G-T primer terminal mismatch) was “substantial removal of the mismatch” and the “removal of chain-terminating nucleotides (ddCMP, AZTMP, araCMP, dFdCMP)” value (human DNA polymerase β [4]; relative to PPi) was “more rapidly; also recorded: substantially better”.
